Measurements reported in PubChem BioAssay AID1259405 (NCATS, 2018)
Purpose: 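Silenced genes that increase secreted GFP made by CHO cells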 (primary screen). System: Chinese hamster CHO-K1 ovary cells with stable secreted eGFP expression. Knock-down reagent: single siRNA against mouse genes, 0.8 pmol siRNA per well (2 µl of 400 nM stock). Duration: 3 days. Measurement: 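Percent of the per-plate non-targeting control median for intracellular GFP per well by laser scanning cytometry and for cell viability by ATP luminescence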. Scale: GFP, % of control: higher = more GFP per well, higher productivity; viability (ATP), % of control: higher = more viable cells (more ATP). Active means: 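Called active when intracellular GFP, relative to negative control, is at or above 120%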.
The deposit covers about 50,000 reagents; shown is a part drawn at random. In the full data, about 4,000 (8%) were called active. 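Mouse siRNA library applied to hamster cells; one well for each siRNA.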 Reagents against one gene are numbered here.

Which result is listed for Tktl1 (GeneID 83553) #1?
GFP, % of control: 114; viability (ATP), % of control: 106; outcome: inactive

For Tktl1 (GeneID 83553) #2, what was measured?
GFP, % of control: 77.8; viability (ATP), % of control: 132; outcome: inactive

What did the screen give for Tktl1 (GeneID 83553) #3?
GFP, % of control: 87; viability (ATP), % of control: 117; outcome: inactive

Which result is listed for Tceal9 (GeneID 22381) #1?
GFP, % of control: 57.5; viability (ATP), % of control: 76.1; outcome: inactive

For Tceal9 (GeneID 22381) #2, how do the results read?
GFP, % of control: 64.7; viability (ATP), % of control: 63.2; outcome: inactive

For Tceal9 (GeneID 22381) #3, what does the deposit list?
GFP, % of control: 81.4; viability (ATP), % of control: 63.7; outcome: inactive

For Sppl3 (GeneID 74585) #1, what does the deposit list?
GFP, % of control: 137; viability (ATP), % of control: 113; outcome: active

For Sppl3 (GeneID 74585) #2, what does the deposit list?
GFP, % of control: 46.3; viability (ATP), % of control: 93.9; outcome: inactive

How did the screen score Sppl3 (GeneID 74585) #3?
GFP, % of control: 74.4; viability (ATP), % of control: 89.2; outcome: inactive

For Or51t4 (GeneID 258357) #1, what was measured?
GFP, % of control: 82.9; viability (ATP), % of control: 61.1; outcome: inactive

With Or51t4 (GeneID 258357) #2, what was measured?
GFP, % of control: 135; viability (ATP), % of control: 114; outcome: active

How did the screen score Or51t4 (GeneID 258357) #3?
GFP, % of control: 46.6; viability (ATP), % of control: 66.2; outcome: inactive

For Mysm1 (GeneID 320713) #1, how do the results read?
GFP, % of control: 77.4; viability (ATP), % of control: 74.7; outcome: inactive

With Mysm1 (GeneID 320713) #2, how do the results read?
GFP, % of control: 137; viability (ATP), % of control: 91.6; outcome: active

What is on record for Slc6a3 (GeneID 13162) #1?
GFP, % of control: 58.5; viability (ATP), % of control: 83.6; outcome: inactive

What is on record for Slc6a3 (GeneID 13162) #2?
GFP, % of control: 83.3; viability (ATP), % of control: 71.5; outcome: inactive

What is on record for Slc6a3 (GeneID 13162) #3?
GFP, % of control: 83.7; viability (ATP), % of control: 69.3; outcome: inactive

What did the screen give for Syngr4 (GeneID 58867) #1?
GFP, % of control: 78; viability (ATP), % of control: 52.6; outcome: inactive

With Syngr4 (GeneID 58867) #2, what does the deposit list?
GFP, % of control: 107; viability (ATP), % of control: 90.3; outcome: inactive

With Syngr4 (GeneID 58867) #3, what was measured?
GFP, % of control: 62; viability (ATP), % of control: 66.5; outcome: inactive

For Wasl (GeneID 73178) #1, what was measured?
GFP, % of control: 65.9; viability (ATP), % of control: 65.7; outcome: inactive

How did the screen score Wasl (GeneID 73178) #2?
GFP, % of control: 70.9; viability (ATP), % of control: 69.7; outcome: inactive

With Wasl (GeneID 73178) #3, what was measured?
GFP, % of control: 74.8; viability (ATP), % of control: 70.6; outcome: inactive

What is on record for Nr0b1 (GeneID 11614) #1?
GFP, % of control: 96.3; viability (ATP), % of control: 90.4; outcome: inactive

How did the screen score Nr0b1 (GeneID 11614) #2?
GFP, % of control: 55.5; viability (ATP), % of control: 62.4; outcome: inactive

Which result is listed for Nr0b1 (GeneID 11614) #3?
GFP, % of control: 72.7; viability (ATP), % of control: 91; outcome: inactive

In a second layout: 3 of the entries above
target gene | reagent no. | GFP, % of control | viability (ATP), % of control | outcome
Sppl3 (GeneID 74585) | 1 | 137 | 113 | active
Sppl3 (GeneID 74585) | 2 | 46.3 | 93.9 | inactive
Sppl3 (GeneID 74585) | 3 | 74.4 | 89.2 | inactive

Continued:
How did the screen score Bmf (GeneID 171543) #1?
GFP, % of control: 130; viability (ATP), % of control: 108; outcome: active

For Bmf (GeneID 171543) #2, what does the deposit list?
GFP, % of control: 59.5; viability (ATP), % of control: 64.5; outcome: inactive

How did the screen score Bmf (GeneID 171543) #3?
GFP, % of control: 146; viability (ATP), % of control: 146; outcome: active

What is on record for Gm1553 (GeneID 432480) #1?
GFP, % of control: 45.2; viability (ATP), % of control: 68.7; outcome: inactive

What is on record for Gm1553 (GeneID 432480) #2?
GFP, % of control: 72.6; viability (ATP), % of control: 108; outcome: inactive

What is on record for Gm1553 (GeneID 432480) #3?
GFP, % of control: 55.7; viability (ATP), % of control: 86.4; outcome: inactive

With Or4a76 (GeneID 257984) #1, what does the deposit list?
GFP, % of control: 74.1; viability (ATP), % of control: 46.9; outcome: inactive

What is on record for Or4a76 (GeneID 257984) #2?
GFP, % of control: 76.1; viability (ATP), % of control: 69.6; outcome: inactive

How did the screen score Or4a76 (GeneID 257984) #3?
GFP, % of control: 64.1; viability (ATP), % of control: 102; outcome: inactive

For Sucla2 (GeneID 20916) #1, what was measured?
GFP, % of control: 67.7; viability (ATP), % of control: 74.1; outcome: inactive

With Sucla2 (GeneID 20916) #2, what does the deposit list?
GFP, % of control: 63.8; viability (ATP), % of control: 83.8; outcome: inactive

With Ugt2b34 (GeneID 100727) #1, what does the deposit list?
GFP, % of control: 79; viability (ATP), % of control: 111; outcome: inactive

With Ugt2b34 (GeneID 100727) #2, how do the results read?
GFP, % of control: 100; viability (ATP), % of control: 86.2; outcome: inactive

With Ugt2b34 (GeneID 100727) #3, what was measured?
GFP, % of control: 96.8; viability (ATP), % of control: 119; outcome: inactive
